PubChem BioAssay AID1259331, Drosophila RNAi Screening Center, 2017
This is an unselected part of about 3,100 reagents tested. Over the whole deposit, 126 (4.1%) got an active call. 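Calls are per reagent; zinc was so toxic that few knock-downs lowered ATP further, so most hits raise ATP.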 The raw values are shown without normalisation. Not stated in the record: the amount of reagent.

Aim: 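Genes whose knock-down changes cell survival under toxic zinc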 (primary screen)
Cell system: Drosophila S2R+ cells
Reagent: long dsRNA against Drosophila genes
Duration: 5 days (4 days knock-down, then 1 day zinc)
Challenge: zinc chloride at 15 mM final level for 1 day
Measurement: 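Total cellular ATP measured by luciferase luminescence as a viability proxy, turned into Z scores from three plate copies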
Direction: mean Z score: higher = more ATP than other wells, better survival under zinc; ATP luminescence: higher = more ATP, more viable cells
Call rule: 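a reagent is called a hit when its Z score is above 1.5 or below -1.5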
Calls: active = hit, ATP up or down; inactive = not a hit

Smvt (GeneID 43744) [DRSC15426]
- mean Z score: 0.04
- ATP luminescence, replicate 1: 65229
- ATP luminescence, replicate 2: 68229
- Call: inactive

Smvt (GeneID 43744) [DRSC39637]
- mean Z score: -0.00604
- ATP luminescence, replicate 1: 56208
- ATP luminescence, replicate 2: 61366
- Call: inactive

Der-1 (GeneID 33369) [DRSC00301]
- mean Z score: 0.555
- ATP luminescence, replicate 1: 61146
- ATP luminescence, replicate 2: 67132
- Call: inactive

Der-1 (GeneID 33369) [DRSC39555]
- mean Z score: 1.35
- ATP luminescence, replicate 1: 84394
- ATP luminescence, replicate 2: 74393
- Call: inactive

Gr28a (GeneID 117348) [DRSC02290]
- mean Z score: -0.355
- ATP luminescence, replicate 1: 45772
- ATP luminescence, replicate 2: 43262
- Call: inactive

CG15531 (GeneID 43592) [DRSC15068]
- mean Z score: 0.608
- ATP luminescence, replicate 1: 72894
- ATP luminescence, replicate 2: 79429
- Call: inactive

CG32262 (GeneID 38445) [DRSC08165]
- mean Z score: -0.517
- ATP luminescence, replicate 1: 25517
- ATP luminescence, replicate 2: 30919
- Call: inactive

CG32262 (GeneID 38445) [DRSC29141]
- mean Z score: 0.702
- ATP luminescence, replicate 1: 74524
- ATP luminescence, replicate 2: 69858
- Call: inactive

CG13160 (GeneID 36343) [DRSC06284]
- mean Z score: 0.132
- ATP luminescence, replicate 1: 83391
- ATP luminescence, replicate 2: 76822
- Call: inactive

Tsp42Ei (GeneID 35618) [DRSC06189]
- mean Z score: 0.116
- ATP luminescence, replicate 1: 79223
- ATP luminescence, replicate 2: 76702
- Call: inactive

Tsp42Ei (GeneID 35618) [DRSC26994]
- mean Z score: -0.121
- ATP luminescence, replicate 1: 60666
- ATP luminescence, replicate 2: 52761
- Call: inactive

PGRP-SA (GeneID 32099) [DRSC19420]
- mean Z score: 0.364
- ATP luminescence, replicate 1: 70905
- ATP luminescence, replicate 2: 73289
- Call: inactive

tty (GeneID 33109) [DRSC20588]
- mean Z score: -0.316
- ATP luminescence, replicate 1: 40063
- ATP luminescence, replicate 2: 44462
- Call: inactive

tty (GeneID 33109) [DRSC26868]
- mean Z score: 0.0501
- ATP luminescence, replicate 1: 64799
- ATP luminescence, replicate 2: 52915
- Call: inactive

Ptp69D (GeneID 39443) [DRSC11258]
- mean Z score: -0.146
- ATP luminescence, replicate 1: 71968
- ATP luminescence, replicate 2: 58437
- Call: inactive

Ptp69D (GeneID 39443) [DRSC36691]
- mean Z score: -0.117
- ATP luminescence, replicate 1: 45552
- ATP luminescence, replicate 2: 45800
- Call: inactive

Ptp69D (GeneID 39443) [DRSC36692]
- mean Z score: -0.0996
- ATP luminescence, replicate 1: 50326
- ATP luminescence, replicate 2: 43879
- Call: inactive

Looked up above:
Under “Call”, Ptp69D (GeneID 39443) [DRSC11258] reads inactive
Smvt (GeneID 43744) [DRSC15426], ATP luminescence, replicate 2 = 68229
